Experimental findings from patent US7579150B1, “Mobile RNA acts as a signal to regulate plant growth and development” (Iowa State University Research Foundation, Inc., priority 2004, dated 2009) are described below.

These are yes or no findings as the source states them, for the method shown. For some assays here: In cells and extracts the contact can be indirect. Some results given as binding are weak or reduced against the parent protein; the word gives no strength. Sequences can lack the tags named with a protein.

Test [1] has as its target T1, GAD:POTH1 fusion protein (full-length POTH1 fused to the GAL4 activation domain) (Solanum tuberosum).
T1 sequence (chain, 35S-methionine labelled (in vitro translation)): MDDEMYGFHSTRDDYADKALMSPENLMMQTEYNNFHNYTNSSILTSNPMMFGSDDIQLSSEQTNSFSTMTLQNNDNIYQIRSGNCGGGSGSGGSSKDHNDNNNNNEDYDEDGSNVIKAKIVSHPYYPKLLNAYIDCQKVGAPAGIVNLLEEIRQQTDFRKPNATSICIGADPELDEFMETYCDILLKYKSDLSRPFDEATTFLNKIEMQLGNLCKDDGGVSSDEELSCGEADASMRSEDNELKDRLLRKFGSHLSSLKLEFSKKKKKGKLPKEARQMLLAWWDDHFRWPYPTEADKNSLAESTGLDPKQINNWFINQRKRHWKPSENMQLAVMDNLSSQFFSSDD
The experiment in a line: immunoprecipitation of in vitro transcribed/translated proteins.

Test [2] shares this target. The experiment in a line: co-immunoprecipitation of in vitro translated 35S-labelled proteins with anti-GAD antibodies, SDS-PAGE and autoradiography.

B1: StBEL-05 protein synthesized in vitro from pGEM11Z (other)
chain: MYYQGTSDNTNIQADHQQRHNHGNSNNNNIQTLYLMNPNNYMQGYTTSDTQQQQQLLFLNSSPAASNALCHANIQHAPLQQQHFVGVPLPAVSLHDQINHHGLLQRMWNNQDQSQQVIVPSSTGVSATSCGGITTDLASQLAFQRPIPTPQHRQQQQQQGGLSLSLSPQLQQQISFNNNISSSSPRTNNVTIRGTLDGSSSNMVLGSKYLKAAQELLDEVVNIVGKSIKGDDQKKDNSMNKESMPLASDVNTNSSGGGESSSRQKNEVAVELTTAQRQELQMKKAKLLAMLEEVEQRYRQYHHQMQIIVLSFEQVAGIGSAKSYTQLALHAISKQFRCLKDAIAEQVKATSKSLGEEEGLGGKIEGSRLKFVDHHLRQQRALQQIGMMQPNAWRPQRGLPERAVSVLRAWLFEHFLHPYPKDSDKIMLAKQTGLTRSQVSNWFINARVRLWKPMVEEMYLEEVKNQEQNSTNTSGDNKNKETNISAPNEEKHPIITSSLLQDGITTTQAEISTSTISTSPTAGASLHHAHNFSFLGSFNMDNTTTTVDHIENNAKKQRNDMHKFSPSSILSSVDMEAKARESSNKGFTNPLMAAYAMGDFGRFDPHDQQMTANFHGNNGVSLTLGLPPSENLAMPVSQQNYLSNDLGSRSEMGSHYNRMGYENIDFQSGNKRFPTQLLPDFVTGNLGT
modifications: 35S-methionine labelled (in vitro translation)
notes: BEL cDNA cloned into pGEM11Z under the T7 promoter; also called p11Z-5
On to B1, for which the binding entry in test [1] and in test [2] was “binds” throughout.
